Some of these results come from one statement about several compounds together. For at least one compound, name, drawing or mass did not settle the structure.
System: human skin
Assay: Skin penetration test in diffusion cell
Type: in vitro ADME
Description: The skin-penetration was evaluated based on the same method described on page 21 of WO2006/009451. FIG. 2 is a drawing of the skin penetration test equipment, wherein (1) indicates the position of the test sample (donor compound), (2) an ⅛″ OD× 1/32″ wall tubing, (3) the receptor input, (4) the receptor compartment and (5) the compound and receptor output that is subjected to analysis.
A compound 3 donor solution was prepared by dissolving 30 mg of compound 3 in 4 ml EtOH and 7 ml phosphate buffer (PBS) at pH 7.4. Compound 4, 6, 7, 8 and 9 donor solutions were prepared by dispersing 80 mg of these compounds in olive oil.
For each compound 4 pieces of human skin (Ø ca 3 cm, mostly epidermis) were applied on a dialysis membrane and mounted into the diffusion cell shown in the FIG. 2. The figure is a schematic drawing of the diffusion cell, wherein is indicated 1: donor compound, 2: receptor compartment, 3: receptor input, 4: compound and receptor output for analysis, 5: ⅛″ OD× 1/32″ wall tubing. The cells were mounted on a temperature controlling and stirring device. The temperature was kept at 37°. The receptor fluid was a PBS buffer. The receptor compartment was stirred magnetically. 400 μl of the donor solution was applied. […]
Furthermore the skin parts were extracted with DMSO to dissolve any UV-absorber in the epidermis. The extracts were analysed by UV.

CCCCCCCCOC(=O)C(=CC=CN(CCCCCCN(C=CC=C(C(=O)OCCCCCCCC)S(=O)(=O)c1ccccc1)Cc1ccccc1)CCCCCCN(C=CC=C(C(=O)OCCCCCCCC)S(=O)(=O)c1ccccc1)Cc1ccccc1)S(=O)(=O)c1ccccc1 [Compound 4]
Presence in receptor fluid after 6 h (human skin (mostly epidermis), 37°, PBS receptor fluid, compound 3 donor in EtOH/PBS pH 7.4, others dispersed in olive oil, UV-analysis): − (a ‘−’ means that no detectable amount of the substance penetrated the skin (less than 5%)) | Presence in skin extract (skin parts extracted with DMSO after the penetration experiment, UV analysis): − (a ‘−’ means that no detectable amount of the substance penetrated the skin (less than 5%))

Source: patent US8318980B2, “UV absorbing compounds” (Fujifilm Manufacturing Europe B.V., priority 2007, dated 2012)
